Test results from patent US20250236666A1 (UNIVERSITE DE LILLE, published 2025).
These are yes or no findings as the source states them, for the method shown. Some entries that bind do so weakly or less than the wild type. No end group written: not given here. *: point of attachment. Biotin = O=C1N[C@H]2[C@H](CS[C@H]2CCCCC(=O)*)N1; C6spacer = C6 spacer

Legend:
[1] = molecular target: T1, Peptide 3 (Pore Forming 2) [biot]-[C6spacer]-… (human); test: dose-response ELISA on biotinylated peptide
T1 sequence (peptide, biotin and C6 spacer at the N-terminus ([biot]-[C6spacer]-)): DGPANYNVDLPFMYS

[2] = molecular target: T1, Peptide 3 (Pore Forming 2) [biot]-[C6spacer]-… (human); test: specificity ELISA at 75 µg/mL-500 nM, target peptide against irrelevant peptide

B1: Monoclonal antibody P3-R4-E11 (antibody, human IgG1, kappa, V domains shown)
VH: EVQLVESGGSLVKPGGSLRLSCAASGFTFSNSGMNWVRQAPGKGLEWISGISGSSRYIGYADFVKGRFTISRDNAKNSLYLQMNSLRAEDTAVYYCVRSNYGGMDVWGRGTLVTVSS
VL: QSVLTQPASVSGSPGQSITISCAGTSSDVGGYGYVSWYQQHPGKAPKLMIYYDSYRPSGVSNRFSGSKSGNTASLTISGLQAEDEADYYCSSYTSQSTRVFGGGTKLEIKR
notes: scFv from phage display subcloned into Human IgG1 format, expressed in HEK293T
binding [1]: binds
binding [2]: binds
